Experimental data: article PMC12563811
These are yes or no findings as the source states them, for the method shown. Binding seen in cells or lysates may run through a third protein. A yes stands for co-enrichment or nearness to the bait. Other partners may have been found.

Target: T1, transcobalamin 1 (TCN1), in 293T cells (UniProt P20061)
T1 sequence: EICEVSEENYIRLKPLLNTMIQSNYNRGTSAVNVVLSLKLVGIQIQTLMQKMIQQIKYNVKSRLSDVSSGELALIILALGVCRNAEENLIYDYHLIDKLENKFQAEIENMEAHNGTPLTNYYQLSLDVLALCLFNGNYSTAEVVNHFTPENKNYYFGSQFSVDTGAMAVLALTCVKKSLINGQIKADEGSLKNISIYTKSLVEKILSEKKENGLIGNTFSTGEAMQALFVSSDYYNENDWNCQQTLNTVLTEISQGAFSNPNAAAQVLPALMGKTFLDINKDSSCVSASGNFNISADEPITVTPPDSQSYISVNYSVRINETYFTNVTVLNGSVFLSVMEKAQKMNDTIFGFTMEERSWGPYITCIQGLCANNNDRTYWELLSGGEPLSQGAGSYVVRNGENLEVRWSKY
Assay: affinity purification with mass spectrometry; proteins precipitated with TCN1 from TCN1-overexpressing cells (HEK-293T by the legend of Figure 6B), silver staining and mass spectrometry; hits crossed with transcription factor prediction databases

B1: signal transducer and activator of transcription 4 (STAT4), in 293T cells (protein, UniProt Q14765 1-748)
chain: MSQWNQVQQLEIKFLEQVDQFYDDNFPMEIRHLLAQWIENQDWEAASNNETMATILLQNLLIQLDEQLGRVSKEKNLLLIHNLKRIRKVLQGKFHGNPMHVAVVISNCLREERRILAAANMPVQGPLEKSLQSSSVSERQRNVEHKVAAIKNSVQMTEQDTKYLEDLQDEFDYRYKTIQTMDQSDKNSAMVNQEVLTLQEMLNSLDFKRKEALSKMTQIIHETDLLMNTMLIEELQDWKRRQQIACIGGPLHNGLDQLQNCFTLLAESLFQLRRQLEKLEEQSTKMTYEGDPIPMQRTHMLERVTFLIYNLFKNSFVVERQPCMPTHPQRPLVLKTLIQFTVKLRLLIKLPELNYQVKVKASIDKNVSTLSNRRFVLCGTNVKAMSIEESSNGSLSVEFRHLQPKEMKSSAGGKGNEGCHMVTEELHSITFETQICLYGLTIDLETSSLPVVMISNVSQLPNAWASIIWYNVSTNDSQNLVFFNNPPPATLSQLLEVMSWQFSSYVGRGLNSDQLHMLAEKLTVQSSYSDGHLTWAKFCKEHLPGKSFTFWTWLEAILDLIKKHILPLWIDGYVMGFVSKEKERLLLKDKMPGTFLLRFSESHLGGITFTWVDHSESGEVRFHSVEPYNKGRLSALPFADILRDYKVIMAENIPENPLKYLYPDIPKDKAFGKHYSSQPCEVSRPTERGDKGYVPSVFIPISTIRSDSTEPHSPSDLLPMSPSVYAVLRENLSPTTIETAMKSPYSAE
binding: binds
